From paper PMC11876615 come the findings set out here.

Amino acid sequences for entries named in this document (tags omitted).
UniProt P19474: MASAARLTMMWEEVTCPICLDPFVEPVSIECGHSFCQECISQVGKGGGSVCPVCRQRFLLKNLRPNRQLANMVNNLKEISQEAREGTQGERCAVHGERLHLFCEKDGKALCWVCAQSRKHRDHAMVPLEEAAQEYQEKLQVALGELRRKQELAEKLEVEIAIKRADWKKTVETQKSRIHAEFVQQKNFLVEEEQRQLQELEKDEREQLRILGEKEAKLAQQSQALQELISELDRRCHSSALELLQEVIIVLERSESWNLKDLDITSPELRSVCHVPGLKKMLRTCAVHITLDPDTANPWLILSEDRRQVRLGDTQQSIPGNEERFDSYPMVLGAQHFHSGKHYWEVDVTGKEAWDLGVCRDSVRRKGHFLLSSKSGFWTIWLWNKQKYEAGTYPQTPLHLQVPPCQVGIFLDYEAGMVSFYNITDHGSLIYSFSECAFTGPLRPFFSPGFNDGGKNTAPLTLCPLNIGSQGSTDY

No constants are given. Whether binding was seen depends on the method and setting. In cells and extracts the contact can be indirect. These calls come from enrichment with a bait or labelling near it, and not all partners need be listed. Tags and fused reporters may be left off the sequences shown.

The experiment has as its target T1, Flag-tagged hSPAR (human small regulatory polypeptide of amino acid response) (human).
T1 sequence: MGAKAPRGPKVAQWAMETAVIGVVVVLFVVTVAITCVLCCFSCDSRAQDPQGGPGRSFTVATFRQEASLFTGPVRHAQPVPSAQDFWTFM
As to the kind of experiment: affinity purification with mass spectrometry; hSPAR Co-IP from MDA-MB-231 cells; samples resolved by SDS-PAGE, silver stained, bands uniquely present in the hSPAR Co-IP excised and analysed by mass spectrometry.

Take “Tripartite motif-containing 21 (TRIM21) (from UniProt P19474 1-475)”: the binding result was “binds”.
